Reference: publication PMC11947133
Where two headings read alike, the source gives them in different places. No constants are given. Whether binding was seen depends on the method and setting. In cells and extracts the contact can be indirect. Some results given as binding are weak or reduced against the parent protein; the word gives no strength.

Sequences of proteins named here, by UniProt entry; tags and fusion partners are left off. Residues count along the entry.
UniProt P0DTD2: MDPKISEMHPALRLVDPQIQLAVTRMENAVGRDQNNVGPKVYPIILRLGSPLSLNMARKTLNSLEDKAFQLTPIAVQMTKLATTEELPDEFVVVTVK
UniProt Q9NWH2: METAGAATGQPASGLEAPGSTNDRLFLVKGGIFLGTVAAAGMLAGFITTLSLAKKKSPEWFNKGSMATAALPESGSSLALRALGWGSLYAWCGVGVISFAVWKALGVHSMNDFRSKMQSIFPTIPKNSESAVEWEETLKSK
UniProt O95169, residues 29-186: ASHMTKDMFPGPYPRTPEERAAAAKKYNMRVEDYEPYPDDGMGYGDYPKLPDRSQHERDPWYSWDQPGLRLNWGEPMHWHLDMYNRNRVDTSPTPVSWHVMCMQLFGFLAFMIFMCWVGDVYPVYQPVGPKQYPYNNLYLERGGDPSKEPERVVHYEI
UniProt Q9BXK5: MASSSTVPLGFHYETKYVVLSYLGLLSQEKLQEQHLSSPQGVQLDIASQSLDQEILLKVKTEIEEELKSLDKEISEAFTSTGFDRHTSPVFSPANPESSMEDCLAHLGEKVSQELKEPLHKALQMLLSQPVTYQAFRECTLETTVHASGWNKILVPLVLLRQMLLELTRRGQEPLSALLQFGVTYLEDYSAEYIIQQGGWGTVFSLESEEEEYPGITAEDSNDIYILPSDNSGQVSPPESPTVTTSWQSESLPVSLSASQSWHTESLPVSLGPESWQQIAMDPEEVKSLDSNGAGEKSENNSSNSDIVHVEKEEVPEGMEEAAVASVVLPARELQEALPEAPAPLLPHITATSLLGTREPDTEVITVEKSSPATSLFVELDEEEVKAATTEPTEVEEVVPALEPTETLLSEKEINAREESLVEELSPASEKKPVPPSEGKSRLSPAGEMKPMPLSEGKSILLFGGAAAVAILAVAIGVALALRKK

B1: human deubiquitinase USP13 (enzyme, UniProt Q92995 1-863)
chain: MQRRGALFGMPGGSGGRKMAAGDIGELLVPHMPTIRVPRSGDRVYKNECAFSYDSPNSEGGLYVCMNTFLAFGREHVERHFRKTGQSVYMHLKRHVREKVRGASGGALPKRRNSKIFLDLDTDDDLNSDDYEYEDEAKLVIFPDHYEIALPNIEELPALVTIACDAVLSSKSPYRKQDPDTWENELPVSKYANNLTQLDNGVRIPPSGWKCARCDLRENLWLNLTDGSVLCGKWFFDSSGGNGHALEHYRDMGYPLAVKLGTITPDGADVYSFQEEEPVLDPHLAKHLAHFGIDMLHMHGTENGLQDNDIKLRVSEWEVIQESGTKLKPMYGPGYTGLKNLGNSCYLSSVMQAIFSIPEFQRAYVGNLPRIFDYSPLDPTQDFNTQMTKLGHGLLSGQYSKPPVKSELIEQVMKEEHKPQQNGISPRMFKAFVSKSHPEFSSNRQQDAQEFFLHLVNLVERNRIGSENPSDVFRFLVEERIQCCQTRKVRYTERVDYLMQLPVAMEAATNKDELIAYELTRREAEANRRPLPELVRAKIPFSACLQAFSEPENVDDFWSSALQAKSAGVKTSRFASFPEYLVVQIKKFTFGLDWVPKKFDVSIDMPDLLDINHLRARGLQPGEEELPDISPPIVIPDDSKDRLMNQLIDPSDIDESSVMQLAEMGFPLEACRKAVYFTGNMGAEVAFNWIIVHMEEPDFAEPLTMPGYGGAASAGASVFGASGLDNQPPEEIVAIITSMGFQRNQAIQALRATNNNLERALDWIFSHPEFEEDSDFVIEMENNANANIISEAKPEGPRVKDGSGTYELFAFISHMGTSTMSGHYICHIKKEGRWVIYNDHKVCASERPPKDLGYMYFYRRIPS
B2: WIPI1 (protein, UniProt Q5MNZ9 1-446)
chain: MEAEAADAPPGGVESALSCFSFNQDCTSLATGTKAGYKLFSLSSVEQLDQVHGSNEIPDVYIVERLFSSSLVVVVSHTKPRQMNVYHFKKGTEICNYSYSSNILSIRLNRQRLLVCLEESIYIHNIKDMKLLKTLLDIPANPTGLCALSINHSNSYLAYPGSLTSGEIVLYDGNSLKTVCTIAAHEGTLAAITFNASGSKLASASEKGTVIRVFSVPDGQKLYEFRRGMKRYVTISSLVFSMDSQFLCASSNTETVHIFKLEQVTNSRPEEPSTWSGYMGKMFMAATNYLPTQVSDMMHQDRAFATARLNFSGQRNICTLSTIQKLPRLLVASSSGHLYMYNLDPQDGGECVLIKTHSLLGSGTTEENKENDLRPSLPQSYAATVARPSASSASTVPGYSEDGGALRGEVIPEHEFATGPVCLDDENEFPPIILCRGNQKGKTKQS
B3: MFF (protein, UniProt Q9GZY8 1-342)
chain: MSKGTSSDTSLGRVSRAAFPSPTAAEMAEISRIQYEMEYTEGISQRMRVPEKLKVAPPNADLEQGFQEGVPNASVIMQVPERIVVAGNNEDVSFSRPADLDLIQSTPFKPLALKTPPRVLTLSERPLDFLDLERPPTTPQNEEIRAVGRLKRERSMSENAVRQNGQLVRNDSLWHRSDSAPRNKISRFQAPISAPEYTVTPSPQQARVCPPHMLPEDGANLSSARGILSLIQSSTRRAYQQILDVLDENRRPVLRGGSAAATSNPHHDNVRYGISNIDTTIEGTSDDLTVVDAASLRRQIIKLNRRLQLLEEENKERAKREMVMYSITVAFWLLNSWLWFRR

Assays:
Test in all cases: split reporter
[1] = target: SARS-CoV-2 ORF9b (SARS-CoV-2) (UniProt P0DTD2)
[2] = target: SARS-CoV-2 NSP13 viral helicase (SARS-CoV-2) (UniProt P0DTD1)
[3] = target: SARS-CoV-2 NSP1 (SARS-CoV-2) (UniProt P0DTD1)
[4] = target: SARS-CoV-2 ORF9b (SARS-CoV-2) (UniProt P0DTD2); remark: listed apart in the source

Molecule | binding [1] | other results
TMEM242 (from UniProt Q9NWH2 1-141) | binds | –
NDUFB8 (from UniProt O95169 29-186) | binds | –
BCL2L13 (from UniProt Q9BXK5 1-485) | binds | –
B1 | – | binding [2]: binds
B2 | – | binding [3]: binds
B3 | – | binding [4]: binds
